Laboratory results published in publication PMC5547131.

Sequences of proteins named here, by UniProt entry; tags and fusion partners are left off. A change or cut given only in a name is not applied to a line headed by its entry.
UniProt P49767: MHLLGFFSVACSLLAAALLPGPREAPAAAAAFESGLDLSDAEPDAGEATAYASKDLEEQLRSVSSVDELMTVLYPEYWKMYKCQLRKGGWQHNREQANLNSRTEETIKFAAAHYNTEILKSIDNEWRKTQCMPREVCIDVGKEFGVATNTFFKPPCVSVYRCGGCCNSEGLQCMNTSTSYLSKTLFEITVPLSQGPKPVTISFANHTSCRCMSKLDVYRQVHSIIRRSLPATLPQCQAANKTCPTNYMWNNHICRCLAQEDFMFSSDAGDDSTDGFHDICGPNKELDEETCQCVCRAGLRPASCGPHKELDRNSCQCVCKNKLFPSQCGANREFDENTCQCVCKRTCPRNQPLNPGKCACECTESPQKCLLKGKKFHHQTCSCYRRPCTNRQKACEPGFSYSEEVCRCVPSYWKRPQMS

Tests used:
full-length CD146 = molecular target: T1, full-length CD146 (UniProt P43121); assay: co-IP; HEK293 cells transfected with CD146 or empty vector, incubated with VEGF-C-His conditional medium or not; lysates precipitated, WB; precipitating antibody not told for this panel
T1 sequence: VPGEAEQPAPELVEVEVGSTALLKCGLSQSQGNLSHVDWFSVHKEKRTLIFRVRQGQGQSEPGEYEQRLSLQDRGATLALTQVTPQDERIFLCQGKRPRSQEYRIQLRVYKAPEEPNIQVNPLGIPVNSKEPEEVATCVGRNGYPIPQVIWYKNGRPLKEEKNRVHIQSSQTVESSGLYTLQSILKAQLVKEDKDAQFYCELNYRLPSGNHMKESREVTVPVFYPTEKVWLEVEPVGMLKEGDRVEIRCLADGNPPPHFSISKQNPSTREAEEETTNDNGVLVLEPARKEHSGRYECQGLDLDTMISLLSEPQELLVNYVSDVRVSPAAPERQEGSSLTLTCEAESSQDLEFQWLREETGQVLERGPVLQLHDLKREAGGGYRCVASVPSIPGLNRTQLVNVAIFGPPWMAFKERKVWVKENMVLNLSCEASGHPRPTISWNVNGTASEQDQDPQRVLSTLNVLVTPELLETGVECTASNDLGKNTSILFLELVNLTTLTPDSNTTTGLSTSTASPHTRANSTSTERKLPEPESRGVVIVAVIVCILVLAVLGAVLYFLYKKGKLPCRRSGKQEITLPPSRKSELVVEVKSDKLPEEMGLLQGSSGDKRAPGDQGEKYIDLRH

VEGF-C = VEGF-C (UniProt P49767); assay: co-IP; HEK293 cells co-transfected with VEGF-C and Flag-tagged CD146 or its truncation mutants for 48 h; RIPA lysates precipitated with anti-VEGF-C mAb, protein G sepharose, WB

| Substance | binding (full-length CD146) | binding (VEGF-C) |
| --- | --- | --- |
| VEGF-C-His (from UniProt P49767) (ligand) | binds | – |
| full-length CD146, Flag-tagged (from UniProt P43121 24-646) (receptor) | – | binds |

No constants are given. Whether binding was seen depends on the method and setting. Binding seen in cells or lysates may run through a third protein. A result given as binding can be weak or reduced; the word gives no strength.
